For 1 molecule, drug sensitivity score results are on record in the supplement of paper PMC8633005.

What all share (assay): drug sensitivity score (DSS) (DSS (unitless, 0-50 scale)); higher = more sensitive (stronger viability inhibition); extreme values may be limits of the assay
What all share (conditions): 72 h; culture: 2D

The subject of assay [1] is SK-MEL-2. The essentials:
(§1)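 A 527-compound oncology library was screened in 384-well plates against melanoma cell lines and patient-derived melanoma cultures grown in 2D, the cultures at 1000–1500 cells per well. Each compound, in DMSO or water, was applied at five concentrations over a 10,000-fold range and incubated for 72 h at 37 °C before CellTiter-Glo luminescence readout of viability. A drug sensitivity score, a modified area-under-curve measure, was calculated from curves fitted in the in-house Breeze software.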

Assay [2] deals with SK-MEL-28. The essentials:
as §1

Assay [3] deals with WM852. The gist of the method: as §1
In assay [4] the test system is WM165. The gist of the method:
as §1

For assay [5], the system named is FM-MEL-3. The gist of the method:
as §1

Assay [6] relates to Bowes. The gist of the method:
as §1

Assay [7] relates to FM-MEL-6. The gist of the method: as §1

On to `C[C@@H]1C[C@H](N)C[C@H](c2ccncc2NC(=O)c2ccc(F)c(-c3c(F)cccc3F)n2)C1` [PIM-447], for which the drug sensitivity score was determined as 0 in assay [1]; 2.7 in assay [2]; 5.6 in assay [3]; 4.1 in assay [4]; 1.9 in assay [5]; 0 in assay [6]. This molecule also returned a drug sensitivity score in assay [7] of 4.6.
